These are yes or no findings as the source states them, for the method shown. Some results given as binding are weak or reduced against the parent protein; the word gives no strength.
Experiments:
[1] = molecular target: extracellular Tau (eTau) from conditioned media of human neurons (human) (UniProt P10636); assay: Western blot
[2] = molecular target: extracellular Tau (eTau) from conditioned media of human neurons (human) (UniProt P10636); assay: Western blot of conditioned media
[3] = molecular target: tau in iPSC-CN lysates (human) (UniProt P10636); assay: Western blot of neuronal lysates probed with IPN001
[4] = molecular target: extracellular Tau (eTau) from conditioned media of human neurons (human) (UniProt P10636); assay: Western blot of conditioned media probed with IPN001

Protein sequences, listed by entry. Tags and fused reporters are not part of them. Lines headed by an entry give the natural chain unless they say otherwise; changes in a name come on top. Chains listed by the source or under a name are the forms on record and can include a tag or linker.
extracellular Tau (eTau) from conditioned media of human neurons (P10636, form named): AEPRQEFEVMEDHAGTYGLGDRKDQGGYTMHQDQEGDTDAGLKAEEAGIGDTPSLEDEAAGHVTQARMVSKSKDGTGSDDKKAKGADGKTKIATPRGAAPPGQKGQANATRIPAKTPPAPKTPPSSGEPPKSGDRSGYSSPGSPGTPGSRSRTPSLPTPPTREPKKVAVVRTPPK
tau in iPSC-CN lysates (P10636, form named): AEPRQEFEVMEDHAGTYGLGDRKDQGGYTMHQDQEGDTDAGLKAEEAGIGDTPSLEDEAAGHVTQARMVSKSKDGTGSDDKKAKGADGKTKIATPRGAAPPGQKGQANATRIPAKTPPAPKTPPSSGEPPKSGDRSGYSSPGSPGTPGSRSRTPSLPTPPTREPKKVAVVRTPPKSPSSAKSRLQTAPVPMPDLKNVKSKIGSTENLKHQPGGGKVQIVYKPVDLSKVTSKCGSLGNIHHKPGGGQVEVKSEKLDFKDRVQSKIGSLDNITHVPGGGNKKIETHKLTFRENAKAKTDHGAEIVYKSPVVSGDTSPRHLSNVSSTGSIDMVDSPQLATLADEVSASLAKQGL

Measured: binding

B1: IPN001 (antibody, V domains shown)
VH: EVQLVESGEDLVKPGGSLKLSCVASGFAFSSYGMSWVRQTPDMRLEWVATISSSGSRTYFPDSVKGRLTISRDNDKNILYLQMSSLRSEDTAMYYCTITWDGAMDYWGRGISVTVSS
VL: DVLMTQTPLSLAVNLGDQASLSCRSSQTILHSNGNTYLEWYLQKPGQSPRLLIYKVSKRFSGVPDRFSGSGSGTDFTLKISRVEADDLGIYYCFQGSLVPWAFGGGTKLEIK
binds: [1] | [2] | [3] | [4]

Source: patent publication US20150232544A1
